{"sequences": {"note": "By UniProt entry, the sequences of proteins in these tests, tags left out. Where a name states a change or a piece, a line headed by the entry shows the natural chain unless it says otherwise.", "UniProt Q9UNA4": "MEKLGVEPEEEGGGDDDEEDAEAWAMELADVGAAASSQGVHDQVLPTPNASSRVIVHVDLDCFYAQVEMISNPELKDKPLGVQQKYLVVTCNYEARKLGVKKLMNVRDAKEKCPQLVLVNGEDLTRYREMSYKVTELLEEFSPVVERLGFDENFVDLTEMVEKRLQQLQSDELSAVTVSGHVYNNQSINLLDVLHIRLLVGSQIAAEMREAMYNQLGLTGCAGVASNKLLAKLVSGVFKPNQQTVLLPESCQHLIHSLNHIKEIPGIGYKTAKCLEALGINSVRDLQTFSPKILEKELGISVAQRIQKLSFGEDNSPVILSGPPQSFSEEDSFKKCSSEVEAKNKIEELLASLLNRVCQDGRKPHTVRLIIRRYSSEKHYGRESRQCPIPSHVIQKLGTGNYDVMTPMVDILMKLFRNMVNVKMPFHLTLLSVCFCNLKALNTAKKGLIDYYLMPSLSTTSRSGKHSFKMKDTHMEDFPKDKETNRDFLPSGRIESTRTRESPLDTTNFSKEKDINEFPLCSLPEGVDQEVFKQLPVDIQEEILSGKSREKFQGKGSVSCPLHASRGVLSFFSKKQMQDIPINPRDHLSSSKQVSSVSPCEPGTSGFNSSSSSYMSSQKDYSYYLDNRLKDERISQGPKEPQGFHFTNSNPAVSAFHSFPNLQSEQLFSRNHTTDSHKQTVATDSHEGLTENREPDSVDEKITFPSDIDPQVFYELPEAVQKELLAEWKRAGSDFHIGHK"}, "source": "PubChem BioAssay AID588590", "about": "(National Center for Advancing Translational Sciences (NCATS), 2011)", "note": "Where “and” joins values, the source holds several entries; their conditions need not be identical. Equal values may be shown once. Screen size: about 390,000 compounds; about 4,000 (1%) were called active. Inconclusive means that the source gave no clear call. Such entries were picked first, then a sample of the others. The call rests on the fitted dose curve; in most records, active means well fitted inhibition curve with a large enough effect; inconclusive means small, poorly fitted or top-dose-only effect, or another doubt; inactive means no such curve, though single readings can be large or run the other way. Where the call is inconclusive, the potency comes from a doubtful curve fit.", "data": [{"biological_target": "DNA polymerase iota (Homo sapiens) (UniProt Q9UNA4)", "assay": "qHTS for Inhibitors of Polymerase Iota; further: potency means the concentration at half of the fitted maximal effect", "conditions": "Pol iota fluorescent replication assay, 10 min; series mostly up to 115 µM; activity, negative = inhibition: at the top concentration", "procedure,_shortened": "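Pol iota at 10 nM preincubated 15 min with compounds at room temperature; reaction started with fluorescent substrate, 50 nM final. Fluorescence read kinetically at 0 and 10 min; buffer-only wells as negative control.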", "values": [{"molecule": "COC(=O)CCC(=O)OC1(C)C(=O)C2=CN(CCc3c[nH]c4ccccc34)C(c3ccc(OC)cc3)=CC2=C(Br)C1=O", "note": "(stereo unspecified)", "Potency": "inconclusive: 35.5 µM [inhibitor, single point]"}, {"molecule": "COc1cc(NS(=O)(=O)c2ccc(NC(=S)NC(=O)c3sc4ccccc4c3Cl)cc2)ncn1", "Potency": "inconclusive: 28.2 µM [inhibitor, single point]"}, {"molecule": "CC(C)=CCN1CCN(CCCn2cccn2)CC1CCO", "note": "(stereo unspecified)", "Potency": "inconclusive: 100 µM [inhibitor, single point]"}, {"molecule": "COc1cc2c(cc1C(F)(F)F)N(C(=O)Nc1cc(F)cc(-c3cccnc3)c1)CC2", "Potency": "inconclusive: 22.4 µM [inhibitor, single point] and inconclusive: 14.1 µM [inhibitor, partial curve]"}, {"molecule": "COc1ccc(-c2cc(-c3n[nH]c(=S)n3-c3cc(OC)ccc3OC)[nH]n2)cc1", "activity, negative = inhibition": "inactive: -17%"}, {"molecule": "O=C(Nc1nnc(SCc2ccc(Cl)cc2Cl)s1)C1COc2ccccc2O1", "note": "(stereo unspecified)", "Potency": "inconclusive: 10 µM [inhibitor, partial curve, poor fit]"}, {"molecule": "O=C(N/N=C/c1ccncc1)c1ccc(NC(=O)c2ccc(Cl)cc2)cc1", "activity, negative = inhibition": "inactive: -28.4%"}, {"molecule": "CC(=O)Nc1nnc(S(=O)(=O)N2CCN(c3ccc([N+](=O)[O-])cc3Cl)CC2)s1", "Potency": "inconclusive: 44.7 µM [inhibitor, partial curve, poor fit]"}, {"molecule": "Cc1ccc(NC(=O)c2cc(-c3ccco3)nc3ccccc23)cc1S(=O)(=O)N1CCOCC1", "Potency": "active: 15.8 µM"}, {"molecule": "Cc1ncc(CN2CCCC(C(=O)Nc3ccc(-c4cccc(F)c4)cc3)C2)n1C", "note": "(stereo unspecified)", "activity, negative = inhibition": "inactive: 0.317%"}, {"molecule": "CCCc1cc(=O)n2c([nH]c3ccccc32)c1C#N", "Potency": "inconclusive: 3.98 µM [inhibitor, full curve]"}, {"molecule": "Cc1cccc(CNC(=O)Cn2ccc3cc(S(=O)(=O)N4CCC(C)CC4)ccc32)c1", "Potency": "inconclusive: 89.1 µM [inhibitor, single point]"}, {"molecule": "CCC(Sc1nc(C)cc(C)n1)C(=O)NC1=NN=C(c2ccc(C)cc2)CS1", "note": "(stereo unspecified)", "Potency": "inconclusive: 5.01 µM [inhibitor, full curve, poor fit]"}, {"molecule": "COc1ccc(CN2C(=O)C(C)Nc3ncnc(N4CCN(c5ccccc5)CC4)c32)cc1", "note": "(stereo unspecified)", "Potency": "inconclusive: 14.1 µM [inhibitor, full curve, poor fit]"}, {"molecule": "COC(=O)c1ccccc1NC(=O)C1CCCN(S(=O)(=O)c2ccc(F)cc2)C1", "note": "(stereo unspecified)", "Potency": "inconclusive: 112 µM [inhibitor, partial curve, poor fit]"}, {"molecule": "COc1ccc(OC)c(NC(=O)C2C3CCC(C3=C(C)C)C2C(=O)O)c1", "note": "(stereo unspecified)", "Potency": "inconclusive: 44.7 µM [inhibitor, single point]"}, {"molecule": "CN(C)CCn1cnc2c1c(=O)[nH]c(=O)n2Cc1ccccc1", "Potency": "inconclusive: 35.5 µM [inhibitor, partial curve, poor fit]"}, {"molecule": "C=CCn1c(Sc2ncc([N+](=O)[O-])s2)n[nH]c1=O", "Potency": "active: 10 µM"}, {"molecule": "CCCCNc1c(-c2ccc(OC)c(Sc3ccc(OC)cc3)c2)nc2ccc(Cl)cn12", "Potency": "inconclusive: 28.2 µM [inhibitor, partial curve, poor fit]"}, {"molecule": "C=CCn1c(N)c(C(=O)Nc2cccc(C)c2)c2nc3ccccc3nc21", "Potency": "inconclusive: 22.4 µM [inhibitor, partial curve, poor fit]"}, {"molecule": "CC(C)c1ccccc1OCCNC(=S)NC(=O)c1cccnc1", "activity, negative = inhibition": "inactive: 45.7%"}, {"molecule": "Nc1nonc1C(=O)N/N=C/c1ccc(-c2ccc(Cl)c(C(=O)O)c2)o1", "Potency": "active: 22.4 µM"}, {"molecule": "COc1cc(/C=N/NC(=O)NC2CCCCC2)ccc1O", "activity, negative = inhibition": "inactive: 19.4%"}, {"molecule": "Cc1cccc(NC(=O)c2oc3ccc(S(=O)(=O)N4CCC5(CC4)OCCO5)cc3c2C)c1C", "activity, negative = inhibition": "inactive: 12.3%"}, {"molecule": "CCCC(=O)N=c1sc2cccc(F)c2n1C", "Potency": "inconclusive: 44.7 µM [inhibitor, full curve, poor fit]"}, {"molecule": "CNC(=O)Nc1ccc(C2SCCS2)cc1", "Potency": "inconclusive: 39.8 µM [inhibitor, single point]"}, {"molecule": "COc1ccc(C)cc1NC(=O)CN1C(=O)COc2ccc(S(=O)(=O)NC3CCCC3)cc21", "activity, negative = inhibition": "inactive: -7.16%"}, {"molecule": "CCN(CC)CCC=C(c1cccs1)c1cccs1", "Potency": "inconclusive: 10 µM [inhibitor, full curve, poor fit]"}, {"molecule": "O=C(O)CCc1nnc(SCC(=O)Nc2ccc(Cl)c(C(F)(F)F)c2)[nH]c1=O", "activity, negative = inhibition": "inactive: 0.356%"}, {"molecule": "CCOC(=O)c1cc(S(=O)(=O)Nc2ccccc2OCC)[nH]n1", "Potency": "inconclusive: 20 µM [inhibitor, full curve, poor fit]"}, {"molecule": "Cc1nn(Cc2ccccc2Cl)c(C)c1C(=O)NCCN1C(=O)S/C(=C\\c2ccccc2)C1=O", "Potency": "inconclusive: 31.6 µM [inhibitor, single point]"}, {"molecule": "Cn1c(N)c(C(=O)COC(=O)C2(c3ccc(Cl)cc3)CCCC2)c(=O)n(C)c1=O", "Potency": "inconclusive: 4.47 µM [inhibitor, full curve, poor fit]"}, {"molecule": "CC(Sc1sc(=S)sc1SC(C)C(=O)O)C(=O)O", "note": "(stereo unspecified)", "Potency": "inconclusive: 17.8 µM [inhibitor, full curve]"}, {"molecule": "COC(=O)c1sc(N)c(C(=O)OC)c1COC(=O)C1CC(=O)N(Cc2ccco2)C1", "note": "(stereo unspecified)", "Potency": "inconclusive: 14.1 µM [inhibitor, full curve, poor fit]"}, {"molecule": "O=C(N/N=C/c1ccco1)c1ccc(N2CCCC2=O)cc1", "Potency": "inconclusive: 89.1 µM [inhibitor, partial curve, poor fit]"}, {"molecule": "CCCCNC(=O)C(C)N(CCN(C)C)C(=O)CCCN1C(=O)NC(c2ccc([N+](=O)[O-])cc2)C(C(=O)OCc2ccccc2)=C1C", "note": "(stereo unspecified)", "Potency": "inconclusive: 79.4 µM [inhibitor, single point]"}, {"molecule": "CCc1nnc(N/N=C/c2c(Cl)cccc2Cl)n1N", "Potency": "active: 12.6 µM"}, {"molecule": "Cc1ccc(NC(=O)c2ccc(F)cc2)nc1", "activity, negative = inhibition": "inactive: 0.414%"}, {"molecule": "Cn1c(CNC(=O)c2ccc(Cl)cc2)nnc1SCC(=O)Nc1sc2c(c1C#N)CCCC2", "Potency": "inconclusive: 25.1 µM [inhibitor, single point]"}, {"molecule": "CC1(C)CC(=O)C(N=Nc2ccc(S(=O)(=O)N3CCCCCC3)cc2)=C(O)C1", "activity, negative = inhibition": "inactive: 9.92%"}, {"molecule": "CC(C)CN(C(=O)CSc1nnnn1C)C1CCS(=O)(=O)C1", "note": "(stereo unspecified)", "Potency": "inconclusive: 79.4 µM [inhibitor, single point]"}]}]}
